No constants are given. Whether binding was seen depends on the method and setting. Some entries that bind do so weakly or less than the wild type.
What was measured:
cytochrome C = cytochrome C (UniProt P99999); assay: single-cell plasmonic immunosandwich assay
[1] = molecular target: cytochrome C (human (endogenous in HepG-2)) (UniProt P99999); assay: single-cell plasmonic immunosandwich assay

Amino acid sequences for entries named in this document (tags omitted).
UniProt P99999: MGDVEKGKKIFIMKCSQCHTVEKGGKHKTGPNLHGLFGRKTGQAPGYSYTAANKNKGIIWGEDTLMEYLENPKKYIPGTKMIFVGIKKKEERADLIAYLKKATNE
UniProt O15392: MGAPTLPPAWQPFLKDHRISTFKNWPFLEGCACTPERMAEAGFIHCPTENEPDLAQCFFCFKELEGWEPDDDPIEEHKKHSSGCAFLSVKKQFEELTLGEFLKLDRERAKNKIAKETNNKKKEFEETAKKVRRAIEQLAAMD

survivin (from UniProt O15392 1-142)
binding (cytochrome C): binds
binding [1]: binds

Reference: paper doi:10.1101/663013
